Laboratory results: patent publication US8501214B2, “Hydrophilic foam and pharmaceutical dosage form employing the same” (priority 2007, dated 2013)
At least one structure is not confirmed: it was looked up by name or label, or the drawing left a doubt.

Test: Solvent/water partition coefficient analysis (1-Octanol/water)
Format: physicochemical
Method: Solvent/water partition coefficient analysis was conducted to determine the solvent/water partition coefficient. Various solvent were used in the experiments; yet, only the 1-Octanol/water partition coefficients of the active agents described herein above are summarized in Table 4. The 1-Octanol/water partition coefficient is the logarithm of the ratio of 1-Octanol to water and can be expressed as [log Poct/wat].

SMILES: Cc1cc2c(C(C)C)c(O)c(O)c(C=O)c2c(O)c1-c1c(C)cc2c(C(C)C)c(O)c(O)c(C=O)c2c1O [Gossypol-acetic acid]
- 1-Octanol/H2O ratio: Insoluble in water
